Laboratory results as given in patent US20200278350A1.
No constants are given. Whether binding was seen depends on the method and setting. Some entries that bind do so weakly or less than the wild type.

Legend:
[1] = biological target: T1, proteolytically cleaved extracellular fragments of PTPµ (human) (UniProt P28827); assay: fluorescent peptide staining of FFPE human glioma tissue
T1 sequence: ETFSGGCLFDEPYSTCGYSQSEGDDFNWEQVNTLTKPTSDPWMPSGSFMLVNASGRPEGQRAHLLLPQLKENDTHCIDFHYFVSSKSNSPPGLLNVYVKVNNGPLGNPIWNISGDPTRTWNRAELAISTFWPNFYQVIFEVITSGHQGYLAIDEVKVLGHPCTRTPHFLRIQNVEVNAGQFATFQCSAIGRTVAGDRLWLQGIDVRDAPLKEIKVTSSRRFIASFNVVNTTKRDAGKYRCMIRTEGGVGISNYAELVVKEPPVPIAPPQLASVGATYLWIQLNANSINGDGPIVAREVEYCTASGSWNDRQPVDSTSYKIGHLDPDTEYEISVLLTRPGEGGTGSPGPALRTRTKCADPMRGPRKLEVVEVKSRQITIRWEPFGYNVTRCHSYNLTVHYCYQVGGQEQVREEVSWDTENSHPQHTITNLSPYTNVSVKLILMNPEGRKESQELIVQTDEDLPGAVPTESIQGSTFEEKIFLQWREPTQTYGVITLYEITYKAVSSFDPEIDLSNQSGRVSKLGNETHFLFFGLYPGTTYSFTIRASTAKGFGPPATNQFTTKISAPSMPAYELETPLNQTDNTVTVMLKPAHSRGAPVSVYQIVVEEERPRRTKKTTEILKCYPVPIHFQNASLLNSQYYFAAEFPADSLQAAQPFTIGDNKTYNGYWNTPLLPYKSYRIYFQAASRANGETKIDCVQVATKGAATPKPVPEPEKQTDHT

[2] = biological target: T1, proteolytically cleaved extracellular fragments of PTPµ (human); assay: fluorescent peptide staining of FFPE tissue, quantified with Image J
[3] = biological target: T1, proteolytically cleaved extracellular fragments of PTPµ (human); assay: fluorescent peptide staining of FFPE human glioma tissue microarrays and slides
[4] = biological target: T1, proteolytically cleaved extracellular fragments of PTPµ (human); assay: fluorescent peptide staining of matched patient tumor and PDX tissue microarray
[5] = biological target: T1, proteolytically cleaved extracellular fragments of PTPµ (human); assay: fluorescent peptide staining of FFPE human gynecologic cancer tissue microarrays

Measured: binding

B1: SBK4 peptide conjugated to Texas Red (peptide)
peptide: GIDVRDAPLKEIKVTSSR
modifications: Texas Red coupled to the N-terminal glycine
binds: [1] | [2] | [3] | [4] | [5]
